Laboratory results published in publication PMC11589570, “Critical assessment of LC3/GABARAP ligands used for degrader development and ligandability of LC3/GABARAP binding pockets” (Nature Communications, 2024).
“And” between values parts separate entries of the source, which are not always exact repeats. Identical values can stand only once. The source gives many values for each of these; only a part stands here.

Test system: U2OS cells
Assay: Cell growth assay (IncuCyte confluence over 72 h)
Assay type: cell-based
Design: key: % of well area covered by cells (confluence)
Procedure, shortened: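 U2OS cells were grown in DMEM with 10% FBS for 24 h before treatment. Confluence was then tracked by IncuCyte phase imaging over 72 h and expressed as % of well area covered by cells. Each point is the average of three wells.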

Compound: O=C1CC(c2ccc(Cl)c(Cl)c2)CC(=O)C1=CNCCN1CCNCC1 (centres unmarked) [Cov-3]
- U2OS cell growth (3 uM, time 12 h): 43.4861 and 28.0002 and 50.1693
- U2OS cell growth (3 uM, time 14 h): 41.8109 and 27.9585 and 52.0009
- U2OS cell growth (3 uM, time 16 h): 43.5379 and 29.5739 and 52.5069
- U2OS cell growth (3 uM, time 18 h): 44.2717 and 29.9913 and 55.6453
- U2OS cell growth (3 uM, time 20 h): 43.2143 and 29.626 and 45.3978
- U2OS cell growth (3 uM, time 22 h): 46.2908 and 29.9803 and 53.5055
- U2OS cell growth (3 uM, time 24 h): 76.2424 and 41.4883 and 68.4498
- U2OS cell growth (3 uM, time 26 h): 55.6998 and 34.7805 and 68.2985
- U2OS cell growth (3 uM, time 28 h): 55.5388 and 36.9224 and 64.6994
- U2OS cell growth (3 uM, time 32 h): 69.2378 and 47.0317 and 71.4411
- U2OS cell growth (3 uM, time 34 h): 61.744 and 42.7789 and 67.1815
- U2OS cell growth (3 uM, time 36 h): 61.8219 and 38.4503 and 63.1718
- U2OS cell growth (3 uM, time 38 h): 70.3858 and 43.0013 and 84.3862
- U2OS cell growth (3 uM, time 40 h): 72.8486 and 43.5517 and 76.196
- U2OS cell growth (3 uM, time 42 h): 82.1679 and 55.0255 and 88.8781
- U2OS cell growth (3 uM, time 44 h): 76.7106 and 54.4554 and 91.0243
- U2OS cell growth (3 uM, time 46 h): 81.5847 and 57.0507 and 69.1145
- U2OS cell growth (3 uM, time 48 h): 83.5561 and 54.7923 and 84.406
- U2OS cell growth (3 uM, time 50 h): 89.7212 and 59.6423 and 89.3225
- U2OS cell growth (3 uM, time 52 h): 91.7723 and 55.4947 and 92.4092
- U2OS cell growth (3 uM, time 54 h): 93.4434 and 71.6993 and 89.9728
- U2OS cell growth (3 uM, time 56 h): 94.8237 and 74.6536 and 94.2151
- U2OS cell growth (3 uM, time 58 h): 98.1184 and 79.6043 and 97.2742
- U2OS cell growth (3 uM, time 60 h): 89.8455 and 68.3403 and 94.239
- U2OS cell growth (3 uM, time 62 h): 94.3733 and 77.1807 and 97.049
- U2OS cell growth (3 uM, time 64 h): 99.1151 and 85.0671 and 97.5391
- U2OS cell growth (3 uM, time 66 h): 95.2648 and 74.4698 and 95.6838
- U2OS cell growth (3 uM, time 68 h): 95.5706 and 80.5435 and 95.4047
- U2OS cell growth (3 uM, time 70 h): 96.8702 and 88.3689 and 94.9067
- U2OS cell growth (3 uM, time 72 h): 99.2485 and 89.3657 and 97.7831
- U2OS cell growth (5 uM, time 12 h): 43.0941 and 33.7933 and 39.6335
- U2OS cell growth (5 uM, time 14 h): 49.7739 and 36.24 and 41.4691
- U2OS cell growth (5 uM, time 16 h): 49.5117 and 34.4551 and 40.733
- U2OS cell growth (5 uM, time 18 h): 55.7143 and 41.9583 and 48.0215
- U2OS cell growth (5 uM, time 20 h): 52.8126 and 41.5046 and 38.6948
- U2OS cell growth (5 uM, time 22 h): 55.39 and 40.8728 and 44.4663
- U2OS cell growth (5 uM, time 24 h): 57.1711 and 44.8381 and 45.0216
- U2OS cell growth (5 uM, time 26 h): 60.3037 and 51.9445 and 50.3514
- U2OS cell growth (5 uM, time 28 h): 63.5144 and 51.0518 and 55.1328
- U2OS cell growth (5 uM, time 30 h): 58.3226 and 39.7111 and 52.6152
- U2OS cell growth (5 uM, time 32 h): 70.1262 and 58.264 and 50.3886
- U2OS cell growth (5 uM, time 34 h): 73.8763 and 53.5707 and 56.4645
- U2OS cell growth (5 uM, time 36 h): 74.3646 and 60.2801 and 61.0466
- U2OS cell growth (5 uM, time 38 h): 68.9052 and 58.1877 and 57.3166
- U2OS cell growth (5 uM, time 40 h): 77.5519 and 58.3266 and 66.8908
- U2OS cell growth (5 uM, time 42 h): 86.4934 and 63.8523 and 77.8514
- U2OS cell growth (5 uM, time 44 h): 84.974 and 76.459 and 70.9389
- U2OS cell growth (5 uM, time 46 h): 86.2469 and 66.2105 and 58.0312
- U2OS cell growth (5 uM, time 48 h): 88.0137 and 75.4588 and 69.5554
- U2OS cell growth (5 uM, time 50 h): 92.5351 and 75.0652 and 78.6768
- U2OS cell growth (5 uM, time 52 h): 94.6117 and 77.6463 and 86.2776
- U2OS cell growth (5 uM, time 54 h): 95.8052 and 84.5624 and 82.7041
- U2OS cell growth (5 uM, time 56 h): 96.2544 and 81.5825 and 91.4643
- U2OS cell growth (5 uM, time 58 h): 94.7421 and 84.6699 and 92.373
- U2OS cell growth (5 uM, time 60 h): 97.6618 and 85.0112 and 93.6333
- U2OS cell growth (5 uM, time 62 h): 98.2696 and 89.8795 and 94.2472
- U2OS cell growth (5 uM, time 64 h): 98.9956 and 88.1889 and 92.6674
- U2OS cell growth (5 uM, time 66 h): 99.029 and 85.213 and 94.6773
- U2OS cell growth (5 uM, time 68 h): 98.1356 and 87.9876 and 93.5547
- U2OS cell growth (5 uM, time 70 h): 98.3204 and 85.9772 and 93.6533
- U2OS cell growth (5 uM, time 72 h): 99.5427 and 93.1045 and 97.9257
- U2OS cell growth (10 uM, time 12 h): 38.3168 and 26.3567 and 27.4967
- U2OS cell growth (10 uM, time 14 h): 36.6784 and 26.6401 and 28.1053
- U2OS cell growth (10 uM, time 16 h): 37.0978 and 24.6529 and 26.0824
- U2OS cell growth (10 uM, time 18 h): 42.1186 and 26.1778 and 28.2156
- U2OS cell growth (10 uM, time 20 h): 45.2476 and 31.1256 and 29.0633
- U2OS cell growth (10 uM, time 22 h): 41.5919 and 30.3643 and 30.2681
- U2OS cell growth (10 uM, time 24 h): 47.291 and 32.7861 and 34.4437
- U2OS cell growth (10 uM, time 26 h): 49.4244 and 36.947 and 35.1114
- U2OS cell growth (10 uM, time 28 h): 55.4156 and 36.4505 and 38.1742
- U2OS cell growth (10 uM, time 30 h): 56.3364 and 34.3259 and 28.2098
- U2OS cell growth (10 uM, time 32 h): 53.3136 and 36.327 and 31.8181
- U2OS cell growth (10 uM, time 34 h): 60.1633 and 44.2443 and 44.1728
- U2OS cell growth (10 uM, time 36 h): 55.4262 and 40.0225 and 38.3053
- U2OS cell growth (10 uM, time 38 h): 59.1193 and 43.3343 and 43.6742
- U2OS cell growth (10 uM, time 40 h): 59.893 and 44.118 and 44.7492
- U2OS cell growth (10 uM, time 42 h): 65.6792 and 49.3826 and 50.1919
- U2OS cell growth (10 uM, time 44 h): 68.0916 and 52.8292 and 53.5612
- U2OS cell growth (10 uM, time 46 h): 70.7293 and 52.8189 and 55.9308
- U2OS cell growth (10 uM, time 48 h): 71.263 and 53.1055 and 48.1643
- U2OS cell growth (10 uM, time 50 h): 75.1418 and 58.8282 and 59.9723
- U2OS cell growth (10 uM, time 52 h): 80.428 and 60.3568 and 64.4991
- U2OS cell growth (10 uM, time 54 h): 81.4954 and 65.4774 and 66.0854
- U2OS cell growth (10 uM, time 56 h): 84.059 and 65.1759 and 75.7737
- U2OS cell growth (10 uM, time 58 h): 88.062 and 70.6137 and 76.7368
- U2OS cell growth (10 uM, time 60 h): 90.7126 and 73.4389 and 79.4368
- U2OS cell growth (10 uM, time 62 h): 89.1196 and 74.4968 and 77.2172
- U2OS cell growth (10 uM, time 64 h): 92.1829 and 77.2315 and 84.3033
- U2OS cell growth (10 uM, time 66 h): 92.6451 and 74.3186 and 75.0777
- U2OS cell growth (10 uM, time 68 h): 96.4851 and 81.8485 and 84.0083
- U2OS cell growth (10 uM, time 70 h): 95.3716 and 81.6625 and 86.4202
- U2OS cell growth (10 uM, time 72 h): 98.251 and 87.2296 and 89.9767
